US9314458B2, “Topical use of ingenol-3-angelate or a salt thereof to treat skin cancer” (LEO Laboratories Limited, priority 2000, dated 2016)
Some of these results come from one statement about several compounds together. At least one compound was matched to its structure with a doubt left.

Assays:
CMV promoter = CMV promoter activity, β-galactosidase adenovirus-5 construct in MM96L cells; type: cell-based, human; details: 100 ng/mL, 20 hr
mouse melanoma B16 tumor = experiment: Topical treatment of B16 tumor on nude mice; type: in vivo; details: tinctures, 2-5 μL daily for 3 days on s.c. B16 tumor

SMILES: CCCCCCCCCCCCCC(=O)O[C@@H]1[C@@H](C)[C@@]2(O)[C@@H](C=C(CO)C[C@]3(O)C(=O)C(C)=C[C@@H]23)C2C(C)(C)[C@@]21OC(C)=O (single isomer, unassigned) [TPA]
- induction of CMV promoter activity (CMV promoter): > 3 fold

SMILES: C/C=C(/C)C(=O)O[C@H]1C(C)=C[C@]23C(=O)[C@@H](C=C(CO)[C@@H](O)[C@]12O)[C@H]1[C@@H](C[C@H]3C)C1(C)C [PEP005, ingenol-3-angelate]
- Efficacy, sites cured (mouse melanoma B16 tumor): ≥ 67%

SMILES: C/C=C(/C)C(=O)O[C@H]1C(C)=C[C@]23C(=O)[C@@H](C=C(COC(C)=O)[C@@H](O)[C@]12O)[C@H]1[C@@H](C[C@H]3C)C1(C)C [PEP008, 20-O-acetyl-ingenol-3-angelate]
- Efficacy, sites cured (mouse melanoma B16 tumor): ≥ 67%
